Experimental findings from article PMC9033807 are described below.

Sequences of proteins named here, by UniProt entry; tags and fusion partners are left off.
UniProt Q9UKV8: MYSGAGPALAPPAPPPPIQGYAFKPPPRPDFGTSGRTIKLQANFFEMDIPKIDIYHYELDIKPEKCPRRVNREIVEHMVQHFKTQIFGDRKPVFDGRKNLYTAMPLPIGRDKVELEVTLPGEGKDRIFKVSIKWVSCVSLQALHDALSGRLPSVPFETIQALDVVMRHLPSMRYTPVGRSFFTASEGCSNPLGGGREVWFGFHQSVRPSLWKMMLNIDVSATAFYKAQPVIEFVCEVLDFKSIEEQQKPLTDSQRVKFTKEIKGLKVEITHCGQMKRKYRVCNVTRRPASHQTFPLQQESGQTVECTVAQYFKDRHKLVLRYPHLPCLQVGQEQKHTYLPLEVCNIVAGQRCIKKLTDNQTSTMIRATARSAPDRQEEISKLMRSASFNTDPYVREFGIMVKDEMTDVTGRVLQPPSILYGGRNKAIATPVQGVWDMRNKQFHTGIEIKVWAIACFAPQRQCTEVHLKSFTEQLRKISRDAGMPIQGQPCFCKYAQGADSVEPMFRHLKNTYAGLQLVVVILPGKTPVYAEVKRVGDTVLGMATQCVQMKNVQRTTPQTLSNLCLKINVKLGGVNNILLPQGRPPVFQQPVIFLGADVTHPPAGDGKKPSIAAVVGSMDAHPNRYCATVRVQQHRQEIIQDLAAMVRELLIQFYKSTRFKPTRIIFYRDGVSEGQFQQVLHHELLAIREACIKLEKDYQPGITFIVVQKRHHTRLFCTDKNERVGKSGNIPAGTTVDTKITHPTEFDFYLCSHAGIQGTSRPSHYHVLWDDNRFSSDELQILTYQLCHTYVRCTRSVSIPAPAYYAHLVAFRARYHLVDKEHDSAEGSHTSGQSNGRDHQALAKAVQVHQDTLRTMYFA

This assay deals with T1, His-TAp63 (UniProt Q9H3D4).
T1 sequence: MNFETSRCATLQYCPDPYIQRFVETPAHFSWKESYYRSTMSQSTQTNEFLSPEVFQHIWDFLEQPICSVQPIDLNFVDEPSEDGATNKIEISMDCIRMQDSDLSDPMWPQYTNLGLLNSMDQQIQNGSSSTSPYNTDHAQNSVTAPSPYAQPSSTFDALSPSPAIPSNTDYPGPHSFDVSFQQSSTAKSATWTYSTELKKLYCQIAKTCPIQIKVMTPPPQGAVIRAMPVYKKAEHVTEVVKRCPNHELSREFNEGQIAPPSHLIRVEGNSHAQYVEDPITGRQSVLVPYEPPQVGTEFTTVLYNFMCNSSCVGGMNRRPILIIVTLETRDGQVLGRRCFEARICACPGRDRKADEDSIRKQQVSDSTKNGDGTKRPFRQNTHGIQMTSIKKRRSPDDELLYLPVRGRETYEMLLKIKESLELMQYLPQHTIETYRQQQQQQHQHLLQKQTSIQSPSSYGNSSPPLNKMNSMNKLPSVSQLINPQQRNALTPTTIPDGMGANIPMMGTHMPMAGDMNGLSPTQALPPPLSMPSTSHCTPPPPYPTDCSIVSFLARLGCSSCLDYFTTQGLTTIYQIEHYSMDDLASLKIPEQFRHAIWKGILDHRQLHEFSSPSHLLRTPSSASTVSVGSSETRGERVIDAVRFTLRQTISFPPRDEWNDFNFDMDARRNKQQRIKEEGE
In words: pull-down; in vitro Ni2+ pull-down; His-TAp63 held, GST-Ago2 detected by immunoblotting with an antibody against GST; proteins purified from E. coli; both purified.

No constants are given. Whether binding was seen depends on the method and setting. Some entries that bind do so weakly or less than the wild type. Tags and fused reporters may be left off the sequences shown.

With GST-Ago2 (from UniProt Q9UKV8 1-859), the binding entry is listed as “binds”.
